Laboratory results: PubChem BioAssay AID1508588 (Peter MacCallum Cancer Centre, 2020)
The whole screen tested about 18,000 reagents; below is a part drawn at random. Over the whole deposit, 790 (4.4%) got an active call. 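Calls rest on a combination of fold-change classes in drug and vehicle arms, not all shown here.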 A number with no mark means an inactive call. Reagent sequences are not shown.

Purpose: 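Knock-downs boosting vemurafenib effects on melanoma cell growth or lactate release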 (primary screen)
Cell system: human WM266.4 melanoma cells (BRAF V600 mutant)
Reagents: siRNA pool against human genes, 40 nM
Duration: 96 h from transfection to read-out
Challenge: vemurafenib 300 nM (about IC25), added 48 h after transfection, for 48 h; comparison arm got DMSO vehicle only
Measured: 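Cell gain (DAPI nuclei at end minus before drug, mean of two replicates) and medium lactate by absorbance per cell, both as ratio to non-targeting siRNA, also grouped into fold-change classes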
Reading the numbers: cell gain with vemurafenib: higher = more cell gain than with non-targeting siRNA; lactate per cell with vemurafenib: higher = more lactate made per cell
Rule for the call: 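a knock-down counts as enhancing when its fold-change classes with vehicle and with vemurafenib, taken together, show a stronger drug effect on cell gain or lactate per cell; exact class pairs not stated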
Calls: active = enhances vemurafenib effect; inactive = no enhancement seen

ANO10 [SID152150993]: cell gain with vemurafenib = 0.43; lactate per cell with vemurafenib = 0.66
MYNN [SID152152300]: cell gain with vemurafenib = 0.45; lactate per cell with vemurafenib = 0.87
NR2C2AP [SID152148127]: cell gain with vemurafenib = 0.58; lactate per cell with vemurafenib = 0.67
EIF3A [SID152153097]: cell gain with vemurafenib = 0.08; lactate per cell with vemurafenib = 1.17
MBP [SID135623800]: cell gain with vemurafenib = 0.5; lactate per cell with vemurafenib = 1.27
CD86 [SID135621458]: cell gain with vemurafenib = 0.15; lactate per cell with vemurafenib = 1.21
ITSN1 [SID135621555]: cell gain with vemurafenib = 0.3; lactate per cell with vemurafenib = 0.35
POPDC2 [SID134317285]: cell gain with vemurafenib = 0.89; lactate per cell with vemurafenib = 0.82
SPEG [SID56479185]: cell gain with vemurafenib = 0.37; lactate per cell with vemurafenib = 0.82
ZNF107 [SID152150249]: cell gain with vemurafenib = 0.47; lactate per cell with vemurafenib = 1.25
GDF5 [SID135622286]: cell gain with vemurafenib = 0.33; lactate per cell with vemurafenib = 2.25
LY6D [SID135622349]: cell gain with vemurafenib = 0.86; lactate per cell with vemurafenib = 0.8
BLMH [SID134311220]: cell gain with vemurafenib = 0.69; lactate per cell with vemurafenib = 0.7
TCP11L2 [SID134319959]: cell gain with vemurafenib = 0.21; lactate per cell with vemurafenib = 1.2
C10orf71 [SID134326494]: cell gain with vemurafenib = 0.52; lactate per cell with vemurafenib = 1.19
NES [SID134328914]: cell gain with vemurafenib = 0.17 (active); lactate per cell with vemurafenib = 0.42
TMSB4XP8 [SID135623742]: cell gain with vemurafenib = 1.17; lactate per cell with vemurafenib = 0.64
KCNS3 [SID134311695]: cell gain with vemurafenib = 0.38; lactate per cell with vemurafenib = 0.87
TAS1R3 [SID135624285]: cell gain with vemurafenib = 0.21; lactate per cell with vemurafenib = 2.75
PKIB [SID56479212]: cell gain with vemurafenib = 0.37; lactate per cell with vemurafenib = 1.88
AWAT2 [SID152155790]: cell gain with vemurafenib = 0.12; lactate per cell with vemurafenib = 1.25
KCNS1 [SID134311694]: cell gain with vemurafenib = 0.84; lactate per cell with vemurafenib = 0.98
OTOG [SID152151296]: cell gain with vemurafenib = 0.14; lactate per cell with vemurafenib = 1.29
RS1 [SID152153757]: cell gain with vemurafenib = 0.71; lactate per cell with vemurafenib = 0.72
C5AR2 [SID134311037]: cell gain with vemurafenib = 0.37; lactate per cell with vemurafenib = 1.27
SLC38A1 [SID135621407]: cell gain with vemurafenib = 0.22; lactate per cell with vemurafenib = 1.1
SAMD11 [SID152153122]: cell gain with vemurafenib = 0.66; lactate per cell with vemurafenib = 0.53
PRR13 [SID135624178]: cell gain with vemurafenib = 1.19; lactate per cell with vemurafenib = 0.72
LOXL3 [SID134312953]: cell gain with vemurafenib = 0.45; lactate per cell with vemurafenib = 1.25
EVPL [SID152149458]: cell gain with vemurafenib = 0.62; lactate per cell with vemurafenib = 0.28
PPP1R42 [SID135624525]: cell gain with vemurafenib = 0.61; lactate per cell with vemurafenib = 0.9
PCBP3 [SID134317433]: cell gain with vemurafenib = 0.07; lactate per cell with vemurafenib = 1.01
DHCR7 [SID135623931]: cell gain with vemurafenib = 0.36; lactate per cell with vemurafenib = 1.29
CCND2 [SID56478572]: cell gain with vemurafenib = 0.76; lactate per cell with vemurafenib = 0.69
METTL16 [SID152155074]: cell gain with vemurafenib = 0.47; lactate per cell with vemurafenib = 1.01
SRY [SID134316098]: cell gain with vemurafenib = 0.84; lactate per cell with vemurafenib = 0.64
ZBTB10 [SID152152835]: cell gain with vemurafenib = 0.18; lactate per cell with vemurafenib = 0.9
CCDC197 [SID135623116]: cell gain with vemurafenib = 0.14; lactate per cell with vemurafenib = 1.67
SLC38A8 [SID135624327]: cell gain with vemurafenib = 0.32; lactate per cell with vemurafenib = 0.99
SUSD1 [SID134318276]: cell gain with vemurafenib = 0.54; lactate per cell with vemurafenib = 0.63
